What all share (assay): affinity purification with mass spectrometry; GFP-Trap immunoprecipitates of stable HeLa lines, in-gel digested, nanoLC-ESI-MS/MS, label-free quantification; three biological replicates
Test [1] concerns the target EGFP-sNASP (UniProt P49321).
Test [2] concerns the target EGFP-ASF1b (UniProt Q9NVP2).
In test [3] the target is EGFP-HAT1 (UniProt O14929).
The target of test [4] is EGFP-sNASP, P49321. The settings on record: remark: other sources report otherwise.

Chains of the proteins cited; added tags and fusions are not shown.
UniProt Q9NVP2: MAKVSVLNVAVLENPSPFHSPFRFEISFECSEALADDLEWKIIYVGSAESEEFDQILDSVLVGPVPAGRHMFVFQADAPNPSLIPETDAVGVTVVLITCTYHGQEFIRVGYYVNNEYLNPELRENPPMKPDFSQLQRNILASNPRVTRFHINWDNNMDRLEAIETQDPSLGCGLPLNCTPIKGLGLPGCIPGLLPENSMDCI
UniProt O14929: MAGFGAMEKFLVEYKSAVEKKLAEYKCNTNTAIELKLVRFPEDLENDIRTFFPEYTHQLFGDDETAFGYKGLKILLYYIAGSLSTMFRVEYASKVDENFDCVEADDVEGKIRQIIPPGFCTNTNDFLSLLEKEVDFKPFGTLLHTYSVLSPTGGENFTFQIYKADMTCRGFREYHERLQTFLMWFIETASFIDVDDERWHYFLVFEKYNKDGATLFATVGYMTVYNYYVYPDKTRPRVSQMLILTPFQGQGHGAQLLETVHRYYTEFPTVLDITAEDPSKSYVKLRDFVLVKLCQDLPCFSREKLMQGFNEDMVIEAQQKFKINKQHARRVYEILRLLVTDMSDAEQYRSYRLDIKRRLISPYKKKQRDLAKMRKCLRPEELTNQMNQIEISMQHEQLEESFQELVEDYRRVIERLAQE
UniProt Q9UBN7: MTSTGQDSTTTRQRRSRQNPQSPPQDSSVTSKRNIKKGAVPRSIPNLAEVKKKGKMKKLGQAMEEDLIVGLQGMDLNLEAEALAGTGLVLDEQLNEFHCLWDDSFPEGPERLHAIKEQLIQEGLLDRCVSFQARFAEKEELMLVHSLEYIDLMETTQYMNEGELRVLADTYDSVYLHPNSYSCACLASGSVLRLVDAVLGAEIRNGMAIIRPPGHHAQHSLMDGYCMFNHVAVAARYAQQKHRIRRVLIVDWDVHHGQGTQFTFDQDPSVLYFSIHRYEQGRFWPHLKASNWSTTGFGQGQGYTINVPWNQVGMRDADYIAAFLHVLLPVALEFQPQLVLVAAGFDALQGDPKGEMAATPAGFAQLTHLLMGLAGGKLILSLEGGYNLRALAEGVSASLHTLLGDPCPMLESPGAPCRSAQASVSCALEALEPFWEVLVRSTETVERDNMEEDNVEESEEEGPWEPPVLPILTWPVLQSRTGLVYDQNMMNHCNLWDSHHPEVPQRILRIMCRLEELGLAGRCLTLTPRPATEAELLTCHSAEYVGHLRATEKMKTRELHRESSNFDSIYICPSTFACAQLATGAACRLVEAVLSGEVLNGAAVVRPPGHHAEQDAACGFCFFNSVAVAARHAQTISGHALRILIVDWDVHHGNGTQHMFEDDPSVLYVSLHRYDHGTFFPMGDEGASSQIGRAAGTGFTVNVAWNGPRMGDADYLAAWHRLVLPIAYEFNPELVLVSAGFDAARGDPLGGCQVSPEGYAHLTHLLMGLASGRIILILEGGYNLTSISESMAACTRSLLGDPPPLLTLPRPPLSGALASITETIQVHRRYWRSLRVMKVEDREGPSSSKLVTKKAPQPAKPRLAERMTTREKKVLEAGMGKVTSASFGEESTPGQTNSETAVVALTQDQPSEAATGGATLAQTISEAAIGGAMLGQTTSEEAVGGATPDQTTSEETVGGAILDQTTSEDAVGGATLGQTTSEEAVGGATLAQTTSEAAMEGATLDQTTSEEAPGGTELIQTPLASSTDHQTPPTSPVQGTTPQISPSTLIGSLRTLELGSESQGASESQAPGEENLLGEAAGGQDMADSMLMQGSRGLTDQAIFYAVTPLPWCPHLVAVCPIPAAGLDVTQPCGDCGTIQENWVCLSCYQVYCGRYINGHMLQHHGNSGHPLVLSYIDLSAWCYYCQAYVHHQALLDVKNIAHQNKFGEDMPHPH
UniProt P54198: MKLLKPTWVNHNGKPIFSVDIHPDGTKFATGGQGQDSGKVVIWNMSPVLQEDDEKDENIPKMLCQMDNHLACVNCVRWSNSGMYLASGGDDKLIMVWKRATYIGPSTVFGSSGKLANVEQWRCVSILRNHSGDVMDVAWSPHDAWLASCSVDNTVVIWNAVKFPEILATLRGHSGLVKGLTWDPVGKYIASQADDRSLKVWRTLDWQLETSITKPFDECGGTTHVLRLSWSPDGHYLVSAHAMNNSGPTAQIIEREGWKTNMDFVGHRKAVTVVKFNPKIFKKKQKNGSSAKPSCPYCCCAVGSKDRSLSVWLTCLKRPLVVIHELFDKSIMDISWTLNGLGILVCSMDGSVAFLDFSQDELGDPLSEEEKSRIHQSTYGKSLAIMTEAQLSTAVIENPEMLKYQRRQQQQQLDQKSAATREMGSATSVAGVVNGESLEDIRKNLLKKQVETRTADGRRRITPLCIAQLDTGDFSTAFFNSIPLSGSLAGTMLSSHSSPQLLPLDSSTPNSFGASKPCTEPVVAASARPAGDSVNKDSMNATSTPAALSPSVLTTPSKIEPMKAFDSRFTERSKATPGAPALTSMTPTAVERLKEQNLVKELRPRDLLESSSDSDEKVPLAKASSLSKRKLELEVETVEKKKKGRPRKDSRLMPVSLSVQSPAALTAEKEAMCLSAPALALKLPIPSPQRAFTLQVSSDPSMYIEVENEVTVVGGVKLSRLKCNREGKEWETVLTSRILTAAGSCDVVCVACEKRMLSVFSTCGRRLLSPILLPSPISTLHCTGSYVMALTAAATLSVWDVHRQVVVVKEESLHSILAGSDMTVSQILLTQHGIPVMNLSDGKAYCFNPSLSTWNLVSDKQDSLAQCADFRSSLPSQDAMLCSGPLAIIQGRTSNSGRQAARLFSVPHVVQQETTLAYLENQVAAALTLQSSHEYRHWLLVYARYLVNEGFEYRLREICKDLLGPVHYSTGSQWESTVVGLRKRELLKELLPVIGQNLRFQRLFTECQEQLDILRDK
UniProt Q14974: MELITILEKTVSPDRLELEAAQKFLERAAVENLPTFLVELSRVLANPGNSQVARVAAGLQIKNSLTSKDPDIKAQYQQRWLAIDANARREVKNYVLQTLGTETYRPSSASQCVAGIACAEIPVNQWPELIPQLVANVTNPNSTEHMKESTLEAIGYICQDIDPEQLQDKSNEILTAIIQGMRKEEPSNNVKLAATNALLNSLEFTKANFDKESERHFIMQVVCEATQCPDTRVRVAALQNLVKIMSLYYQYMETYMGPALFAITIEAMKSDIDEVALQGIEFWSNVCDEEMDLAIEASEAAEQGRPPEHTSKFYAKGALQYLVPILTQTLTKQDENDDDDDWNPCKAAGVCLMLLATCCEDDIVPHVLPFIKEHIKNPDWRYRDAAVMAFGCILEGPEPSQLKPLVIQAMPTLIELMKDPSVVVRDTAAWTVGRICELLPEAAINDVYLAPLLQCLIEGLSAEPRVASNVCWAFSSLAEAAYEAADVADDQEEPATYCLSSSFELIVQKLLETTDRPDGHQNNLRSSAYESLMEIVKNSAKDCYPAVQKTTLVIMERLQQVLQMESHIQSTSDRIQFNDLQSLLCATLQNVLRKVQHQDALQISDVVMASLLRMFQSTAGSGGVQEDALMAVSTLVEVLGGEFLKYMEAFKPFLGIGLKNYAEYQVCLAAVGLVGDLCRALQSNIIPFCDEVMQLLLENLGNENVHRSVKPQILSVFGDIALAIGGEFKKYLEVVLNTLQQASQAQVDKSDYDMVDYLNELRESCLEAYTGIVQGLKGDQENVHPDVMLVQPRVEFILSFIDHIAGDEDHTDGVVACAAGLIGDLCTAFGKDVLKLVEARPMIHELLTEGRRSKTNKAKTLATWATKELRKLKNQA
UniProt Q9UKI8: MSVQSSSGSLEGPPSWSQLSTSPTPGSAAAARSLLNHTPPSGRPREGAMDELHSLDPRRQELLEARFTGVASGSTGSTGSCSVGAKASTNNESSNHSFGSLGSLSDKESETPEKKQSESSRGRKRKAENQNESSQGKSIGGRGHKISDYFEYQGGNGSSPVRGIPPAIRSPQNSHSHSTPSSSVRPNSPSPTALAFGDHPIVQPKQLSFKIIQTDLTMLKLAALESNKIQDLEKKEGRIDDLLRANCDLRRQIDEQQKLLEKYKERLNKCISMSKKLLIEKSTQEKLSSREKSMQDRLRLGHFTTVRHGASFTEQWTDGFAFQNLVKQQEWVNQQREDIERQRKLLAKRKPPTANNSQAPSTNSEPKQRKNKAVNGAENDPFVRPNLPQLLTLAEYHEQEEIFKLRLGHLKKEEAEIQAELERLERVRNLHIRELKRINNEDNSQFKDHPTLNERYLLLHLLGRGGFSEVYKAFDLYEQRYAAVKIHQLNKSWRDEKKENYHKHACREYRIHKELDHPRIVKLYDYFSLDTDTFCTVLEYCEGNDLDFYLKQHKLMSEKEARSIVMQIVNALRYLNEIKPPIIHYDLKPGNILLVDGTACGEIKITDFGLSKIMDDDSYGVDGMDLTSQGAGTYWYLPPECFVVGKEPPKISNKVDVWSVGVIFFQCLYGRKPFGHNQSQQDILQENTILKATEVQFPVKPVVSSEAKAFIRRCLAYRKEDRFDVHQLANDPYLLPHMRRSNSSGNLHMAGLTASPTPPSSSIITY
UniProt Q86UE8: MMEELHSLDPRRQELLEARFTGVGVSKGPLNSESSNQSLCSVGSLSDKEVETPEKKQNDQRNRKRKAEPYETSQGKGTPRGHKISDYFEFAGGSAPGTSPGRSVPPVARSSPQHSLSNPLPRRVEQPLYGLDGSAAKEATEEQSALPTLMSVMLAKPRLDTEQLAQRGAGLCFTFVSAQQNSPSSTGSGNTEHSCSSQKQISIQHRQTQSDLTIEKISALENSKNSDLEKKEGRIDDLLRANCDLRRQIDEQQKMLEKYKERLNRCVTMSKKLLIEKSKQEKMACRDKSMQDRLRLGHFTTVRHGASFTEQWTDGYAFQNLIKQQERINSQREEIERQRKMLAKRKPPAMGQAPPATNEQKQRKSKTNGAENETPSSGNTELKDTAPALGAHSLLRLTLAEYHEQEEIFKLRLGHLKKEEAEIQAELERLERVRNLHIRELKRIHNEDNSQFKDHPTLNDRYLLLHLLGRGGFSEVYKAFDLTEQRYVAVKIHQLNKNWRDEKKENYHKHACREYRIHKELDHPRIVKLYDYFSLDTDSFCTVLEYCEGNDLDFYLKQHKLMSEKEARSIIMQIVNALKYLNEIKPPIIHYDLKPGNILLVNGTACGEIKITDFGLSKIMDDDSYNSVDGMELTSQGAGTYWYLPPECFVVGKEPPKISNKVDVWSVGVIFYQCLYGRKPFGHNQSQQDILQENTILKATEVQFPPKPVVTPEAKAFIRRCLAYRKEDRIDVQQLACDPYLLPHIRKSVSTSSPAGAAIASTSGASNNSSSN

No constants are given. Whether binding was seen depends on the method and setting. Binding seen in cells or lysates may run through a third protein. These calls come from enrichment with a bait or labelling near it, and not all partners need be listed.

Consider EGFP-ASF1b (from UniProt Q9NVP2 1-202), for which the binding entry in test [1] is “binds”.
In the case of EGFP-HAT1 (from UniProt O14929 1-419), the binding result in test [2] and in test [1] was “binds” in each case.
Consider “HDAC6 (endogenous) (from UniProt Q9UBN7 1-1215)”, for which the binding result in test [3], in test [2] and in test [1] was “binds” in each case.
“HIRA (endogenous) (from UniProt P54198 1-1017)”: in test [2], the binding entry is “binds”.
Consider “KPNB1 (endogenous) (from UniProt Q14974 1-876)”, for which the binding entry in test [3], in test [2] and in test [1] was “binds” each time.
For the molecule “TLK1 (endogenous) (from UniProt Q9UKI8 1-766)”, the binding entry in test [2] is “binds”.
As to “TLK2 (endogenous) (from UniProt Q86UE8 1-772)”, the binding result in test [2] is on record as “binds”.
As for “tNASP (endogenous) (from UniProt P49321-1 1-788)”, the binding entry in test [2] was “binds”.

B1: IPO4 (endogenous), Q8TEX9 1-1081 (protein)
chain: MESAGLEQLLRELLLPDTERIRRATEQLQIVLRAPAALPALCDLLASAADPQIRQFAAVLTRRRLNTRWRRLAAEQRESLKSLILTALQRETEHCVSLSLAQLSATIFRKEGLEAWPQLLQLLQHSTHSPHSPEREMGLLLLSVVVTSRPEAFQPHHRELLRLLNETLGEVGSPGLLFYSLRTLTTMAPYLSTEDVPLARMLVPKLIMAMQTLIPIDEAKACEALEALDELLESEVPVITPYLSEVLTFCLEVARNVALGNAIRIRILCCLTFLVKVKSKALLKNRLLPPLLHTLFPIVAAEPPPGQLDPEDQDSEEEELEIELMGETPKHFAVQVVDMLALHLPPEKLCPQLMPMLEEALRSESPYQRKAGLLVLAVLSDGAGDHIRQRLLPPLLQIVCKGLEDPSQVVRNAALFALGQFSENLQPHISSYSREVMPLLLAYLKSVPLGHTHHLAKACYALENFVENLGPKVQPYLPELMECMLQLLRNPSSPRAKELAVSALGAIATAAQASLLPYFPAIMEHLREFLLTGREDLQPVQIQSLETLGVLARAVGEPMRPLAEECCQLGLGLCDQVDDPDLRRCTYSLFAALSGLMGEGLAPHLEQITTLMLLSLRSTEGIVPQYDGSSSFLLFDDESDGEEEEELMDEDVEEEDDSEISGYSVENAFFDEKEDTCAAVGEISVNTSVAFLPYMESVFEEVFKLLECPHLNVRKAAHEALGQFCCALHKACQSCPSEPNTAALQAALARVVPSYMQAVNRERERQVVMAVLEALTGVLRSCGTLTLKPPGRLAELCGVLKAVLQRKTACQDTDEEEEEEDDDQAEYDAMLLEHAGEAIPALAAAAGGDSFAPFFAGFLPLLVCKTKQGCTVAEKSFAVGTLAETIQGLGAASAQFVSRLLPVLLSTAQEADPEVRSNAIFGMGVLAEHGGHPAQEHFPKLLGLLFPLLARERHDRVRDNICGALARLLMASPTRKPEPQVLAALLHALPLKEDLEEWVTIGRLFSFLYQSSPDQVIDVAPELLRICSLILADNKIPPDTKAALLLLLTFLAKQHTDSFQAALGSLPVDKAQELQAVLGLS
For the molecule B1, the binding entry in test [4] is “binds”.

B2: CDAN1 (endogenous) (protein, UniProt Q8IWY9 1-1227)
chain: MAAVLESLLREEVSVAAVVRWIARSTQGSEDNAGEAAALSSLRALRKEFVPFLLNFLREQSSRVLPQGPPTPAKTPGASAALPGRPGGPPRGSRGARSQLFPPTEAQSTAAEAPLARRGGRRRGPGPARERGGRGLEEGVSGESLPGAGGRRLRGSGSPSRPSLTLSDPPNLSNLEEFPPVGSVPPGPTGTKPSRRINPTPVSEERSLSKPKTCFTSPPISCVPSSQPSALDTSPWGLGLPPGCRSLQEEREMLRKERSKQLQQSPTPTCPTPELGSPLPSRTGSLTDEPADPARVSSRQRLELVALVYSSCIAENLVPNLFLELFFVFQLLTARRMVTAKDSDPELSPAVLDSLESPLFQSIHDCVFFAVQVLECHFQVLSNLDKGTLKLLAENERLLCFSPALQGRLRAAYEGSVAKVSLVMPPSTQAVSFQPETDNRANFSSDRAFHTFKKQRDVFYEVLREWEDHHEEPGWDFEKGLGSRIRAMMGQLSAACSHSHFVRLFQKQLLQMCQSPGGAGGTVLGEAPDVLSMLGADKLGRLWRLQERLMAPQSSGGPCPPPTFPGCQGFFRDFILSASSFQFNQHLMDSLSLKIQELNGLALPQHEPNDEDGESDVDWQGERKQFAVVLLSLRLLAKFLGFVAFLPYRGPEPPPTGELQDSILALRSQVPPVLDVRTLLQRGLQARRAVLTVPWLVEFLSFADHVVPLLEYYRDIFTLLLRLHRSLVLSQESEGKMCFLNKLLLLAVLGWLFQIPTVPEDLFFLEEGPSYAFEVDTVAPEHGLDNAPVVDQQLLYTCCPYIGELRKLLASWVSGSSGRSGGFMRKITPTTTTSLGAQPSQTSQGLQAQLAQAFFHNQPPSLRRTVEFVAERIGSNCVKHIKATLVADLVRQAESLLQEQLVTQGEEGGDPAQLLEILCSQLCPHGAQALALGREFCQRKSPGAVRALLPEETPAAVLSSAENIAVGLATEKACAWLSANITALIRREVKAAVSRTLRAQGPEPAARGERRGCSRACEHHAPLPSHLISEIKDVLSLAVGPRDPDEGVSPEHLEQLLGQLGQTLRCRQFLCPPAEQHLAKCSVELASLLVADQIPILGPPAQYRLERGQARRLLHMLLSLWKEDFQGPVPLQLLLSPRNVGLLADTRPREWDLLLFLLRELVEKGLMGRMEIEACLGSLHQAQWPGDFAEELATLSNLFLAEPHLPEPQLRACELVQPNRGTVLAQS
For the molecule B2, the binding entry in test [2] was “binds”.

B3: C15orf41 (endogenous) (protein, UniProt Q9Y2V0 1-281)
chain: MILTKAQYDEIAQCLVSVPPTRQSLRKLKQRFPSQSQATLLSIFSQEYQKHIKRTHAKHHTSEAIESYYQRYLNGVVKNGAAPVLLDLANEVDYAPSLMARLILERFLQEHEETPPSKSIINSMLRDPSQIPDGVLANQVYQCIVNDCCYGPLVDCIKHAIGHEHEVLLRDLLLEKNLSFLDEDQLRAKGYDKTPDFILQVPVAVEGHIIHWIESKASFGDECSHHAYLHDQFWSYWNRFGPGLVIYWYGFIQELDCNRERGILLKACFPTNIVTLCHSIA
Take B3: the binding entry in test [2] is “binds”.

B4: TONSL (endogenous) (protein, UniProt Q96HA7 1-1378)
chain: MSLERELRQLSKAKAKAQRAGQRREEAALCHQLGELLAGHGRYAEALEQHWQELQLRERADDPLGCAVAHRKIGERLAEMEDYPAALQHQHQYLELAHSLRNHTELQRAWATIGRTHLDIYDHCQSRDALLQAQAAFEKSLAIVDEELEGTLAQGELNEMRTRLYLNLGLTFESLQQTALCNDYFRKSIFLAEQNHLYEDLFRARYNLGTIHWRAGQHSQAMRCLEGARECAHTMRKRFMESECCVVIAQVLQDLGDFLAAKRALKKAYRLGSQKPVQRAAICQNLQHVLAVVRLQQQLEEAEGRDPQGAMVICEQLGDLFSKAGDFPRAAEAYQKQLRFAELLDRPGAERAIIHVSLATTLGDMKDHHGAVRHYEEELRLRSGNVLEEAKTWLNIALSREEAGDAYELLAPCFQKALSCAQQAQRPQLQRQVLQHLHTVQLRLQPQEAPETETRLRELSVAEDEDEEEEAEEAAATAESEALEAGEVELSEGEDDTDGLTPQLEEDEELQGHLGRRKGSKWNRRNDMGETLLHRACIEGQLRRVQDLVRQGHPLNPRDYCGWTPLHEACNYGHLEIVRFLLDHGAAVDDPGGQGCEGITPLHDALNCGHFEVAELLLERGASVTLRTRKGLSPLETLQQWVKLYRRDLDLETRQKARAMEMLLQAAASGQDPHSSQAFHTPSSLLFDPETSPPLSPCPEPPSNSTRLPEASQAHVRVSPGQAAPAMARPRRSRHGPASSSSSSEGEDSAGPARPSQKRPRCSATAQRVAAWTPGPASNREAATASTSRAAYQAAIRGVGSAQSRLGPGPPRGHSKALAPQAALIPEEECLAGDWLELDMPLTRSRRPRPRGTGDNRRPSSTSGSDSEESRPRARAKQVRLTCMQSCSAPVNAGPSSLASEPPGSPSTPRVSEPSGDSSAAGQPLGPAPPPPIRVRVQVQDHLFLIPVPHSSDTHSVAWLAEQAAQRYYQTCGLLPRLTLRKEGALLAPQDLIPDVLQSNDEVLAEVTSWDLPPLTDRYRRACQSLGQGEHQQVLQAVELQGLGLSFSACSLALDQAQLTPLLRALKLHTALRELRLAGNRLGDKCVAELVAALGTMPSLALLDLSSNHLGPEGLRQLAMGLPGQATLQSLEELDLSMNPLGDGCGQSLASLLHACPLLSTLRLQACGFGPSFFLSHQTALGSAFQDAEHLKTLSLSYNALGAPALARTLQSLPAGTLLHLELSSVAAGKGDSDLMEPVFRYLAKEGCALAHLTLSANHLGDKAVRDLCRCLSLCPSLISLDLSANPEISCASLEELLSTLQKRPQGLSFLGLSGCAVQGPLGLGLWDKIAAQLRELQLCSRRLCAEDRDALRQLQPSRPGPGECTLDHGSKLFFRRL
With B4, the binding entry in test [2] was “binds”.

B5: HDAC10 (endogenous) (protein, UniProt Q969S8 1-669)
chain: MGTALVYHEDMTATRLLWDDPECEIERPERLTAALDRLRQRGLEQRCLRLSAREASEEELGLVHSPEYVSLVRETQVLGKEELQALSGQFDAIYFHPSTFHCARLAAGAGLQLVDAVLTGAVQNGLALVRPPGHHGQRAAANGFCVFNNVAIAAAHAKQKHGLHRILVVDWDVHHGQGIQYLFEDDPSVLYFSWHRYEHGRFWPFLRESDADAVGRGQGLGFTVNLPWNQVGMGNADYVAAFLHLLLPLAFEFDPELVLVSAGFDSAIGDPEGQMQATPECFAHLTQLLQVLAGGRVCAVLEGGYHLESLAESVCMTVQTLLGDPAPPLSGPMAPCQSALESIQSARAAQAPHWKSLQQQDVTAVPMSPSSHSPEGRPPPLLPGGPVCKAAASAPSSLLDQPCLCPAPSVRTAVALTTPDITLVLPPDVIQQEASALREETEAWARPHESLAREEALTALGKLLYLLDGMLDGQVNSGIAATPASAAAATLDVAVRRGLSHGAQRLLCVALGQLDRPPDLAHDGRSLWLNIRGKEAAALSMFHVSTPLPVMTGGFLSCILGLVLPLAYGFQPDLVLVALGPGHGLQGPHAALLAAMLRGLAGGRVLALLEENSTPQLAGILARVLNGEAPPSLGPSSVASPEDVQALMYLRGQLEPQWKMLQCHPHLVA
B5: the binding entry in test [3], in test [2] and in test [1] was “binds” throughout.

The values are drawn from article PMC6166134.
